The source of these data is article PMC7862772.

Assay [1] concerns the target T1, recombinant E. tenella eIF-5A, GST-tagged (rEteIF-5A) (Eimeria tenella) (UniProt U6KT65).
T1 sequence: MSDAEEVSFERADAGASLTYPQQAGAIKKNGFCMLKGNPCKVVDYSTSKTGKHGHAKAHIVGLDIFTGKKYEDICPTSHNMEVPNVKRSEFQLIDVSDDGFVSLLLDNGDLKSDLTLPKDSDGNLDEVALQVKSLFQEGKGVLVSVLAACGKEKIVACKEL
Kind of assay: pull-down; GST pull-down (Pierce GST Protein Interaction Pull-Down Kit): 150 ug GST-tagged rEteIF-5A (or GST-tag) immobilised on glutathione agarose, 150 ug rEtCDPK4 incubated at 4°C overnight, eluted; western blot with anti-rEteIF-5A and anti-rEtCDPK4 rabbit sera; both purified. For orientation: In western blotting, separated proteins are transferred to a membrane and probed.

Assay [2] concerns the target EtCDPK4 fused to the VC155 fragment (pBiFC-VC155-EtCDPK4) (Eimeria tenella). Kind of assay: split reporter; BiFC in 293T cells co-transfected with pBiFC-VN155 and pBiFC-VC155 fusion plasmids (FuGENE HD), 37°C, fluorescence microscopy 48 h after transfection.
Assay [3] addresses recombinant E. tenella CDPK4, His-tagged (His-rEtCDPK4) (Eimeria tenella). Kind of assay: co-IP; 50 ug rabbit anti-rEtCDPK4 IgG on A/G resin, 50 ug rEteIF-5A and 50 ug rEtCDPK4 incubated together with the resin at 4°C overnight; eluted; western blot with anti-rEtCDPK4 and anti-rEteIF-5A polyclonal antibodies; negative control resin of the kit; both purified.

No constants are given. Whether binding was seen depends on the method and setting. Binding can be weak; no strength is given. Tags and fused reporters may be left off the sequences shown. For part of these data: Binding seen in cells or lysates may run through a third protein.

Take “recombinant E. tenella CDPK4, His-tagged (His-rEtCDPK4) (Eimeria tenella)”: in assay [1], the binding entry is recorded as “binds”.

B1: EteIF-5A fused to the VN155 fragment (pBiFC-VN155-EteIF-5A) (protein, UniProt U6KT65 1-161)
chain: MSDAEEVSFERADAGASLTYPQQAGAIKKNGFCMLKGNPCKVVDYSTSKTGKHGHAKAHIVGLDIFTGKKYEDICPTSHNMEVPNVKRSEFQLIDVSDDGFVSLLLDNGDLKSDLTLPKDSDGNLDEVALQVKSLFQEGKGVLVSVLAACGKEKIVACKEL
Take B1: the binding entry in assay [2] is “binds”.

B2: recombinant E. tenella eIF-5A, GST-tagged (rEteIF-5A) (protein, UniProt U6KT65 1-161)
chain: MSDAEEVSFERADAGASLTYPQQAGAIKKNGFCMLKGNPCKVVDYSTSKTGKHGHAKAHIVGLDIFTGKKYEDICPTSHNMEVPNVKRSEFQLIDVSDDGFVSLLLDNGDLKSDLTLPKDSDGNLDEVALQVKSLFQEGKGVLVSVLAACGKEKIVACKEL
On to B2, for which, in assay [3], the binding entry is “binds”.
